Experimental data as given in the supplement of paper PMC12889115.
The other results are listed elsewhere or left out. These are raw signals, not scaled to a control.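 First-pass screen: polymyxin B was added at a level that permeabilizes the Salmonella outer membrane while sparing the inner membrane. DMSO wells, with and without polymyxin B, defined maximum growth. Because plates differed from one another, each plate's data were ranked separately and the compounds with the lowest OD600 were carried forward as hits.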

Test system: Salmonella enterica serovar Typhimurium SL1344
Assay: bacterial growth OD600 after 18 h with compound and polymyxin B; higher = more bacterial growth (less inhibition)
Conditions: 50 µM, Mueller-Hinton broth

CN(CCOc1ccccc1)C(=O)C1(N(C)C)Cc2ccccc2C1
bacterial growth OD600 (polymyxin B 1 µg/mL): 1.06

CCC1(C2CCN(C(=O)Cc3cccc(C)c3)CC2)NC(=O)N(Cc2ccc3c(c2)OCO3)C1=O (stereo unspecified)
bacterial growth OD600 (polymyxin B 0.75 µg/mL): 0.835

CC(C)Cc1ccc(CN2CCCC(NC(=O)C3CCOCC3)C2)cc1 (stereo unspecified)
bacterial growth OD600 (polymyxin B 1 µg/mL): 0.707

CCCn1c(C)c(CC(=O)NCC2CCCOC2)c2c1CC(C)(C)CC2=O (stereo unspecified)
bacterial growth OD600 (polymyxin B 1 µg/mL): 0.701

CCN(CC)C(=O)C1CCCN(C(=O)c2cn(Cc3ccc(Cl)cc3)nn2)C1 (stereo unspecified)
bacterial growth OD600 (polymyxin B 1 µg/mL): 0.975

Cn1cc(CN2CCCC(CNC(=O)c3cccnc3)C2)c(-c2ccccc2)n1 (stereo unspecified)
bacterial growth OD600 (polymyxin B 0.75 µg/mL): 0.856

CCN(CC1CCN(CCc2ccccc2C)CC1)C(=O)c1occc1C
bacterial growth OD600 (polymyxin B 1 µg/mL): 1.13

COc1ccccc1C(=O)N1CCN(C(=O)C2CC(Cc3ccc(F)cc3)=NO2)CC1 (stereo unspecified)
bacterial growth OD600 (polymyxin B 0.75 µg/mL): 0.909

CCS(=O)(=O)Nc1cc(C(=O)NCCN2CCOCC2)c2c(c1)nc(-c1ccccc1)n2C
bacterial growth OD600 (polymyxin B 0.75 µg/mL): 0.811

CCOC(=O)C1(Cc2ccccc2Cl)CCN(Cc2ccccn2)CC1
bacterial growth OD600 (polymyxin B 1 µg/mL): 0.763

CCn1nc(C)c(CNc2nc3nonc3nc2N2CCCCCC2)c1C
bacterial growth OD600 (polymyxin B 1 µg/mL): 1.05

COc1cccc(CC2(CO)CCCN(Cc3ccccc3OC(F)F)C2)c1 (stereo unspecified)
bacterial growth OD600 (polymyxin B 1 µg/mL): 0.739

COC(=O)c1ccc(-c2nc(CN3CCCC3c3cccc(OC)c3)c(C)o2)cc1 (stereo unspecified)
bacterial growth OD600 (polymyxin B 1 µg/mL): 0.838

CCc1ccc(-c2cn3c(C(=O)N4CCC[C@H]4CO)csc3n2)cc1
bacterial growth OD600 (polymyxin B 0.75 µg/mL): 0.57

CCC1CN(C(=O)CCc2ccccc2OC)Cc2ccc(Cl)cc2O1 (stereo unspecified)
bacterial growth OD600 (polymyxin B 0.75 µg/mL): 0.049

Cc1c(CN2CCOc3ccc(C(O)Cc4ccccc4)cc3C2)cnn1C (stereo unspecified)
bacterial growth OD600 (polymyxin B 0.75 µg/mL): 0.854

O=C(Nc1ccc(Oc2ccccc2F)cc1)C1CCN(Cc2ccncc2)CC1
bacterial growth OD600 (polymyxin B 1 µg/mL): 1.04

C=CCCC(=O)N1CCC(Oc2ccc(C(=O)NCCN(C)C)cc2Cl)CC1
bacterial growth OD600 (polymyxin B 0.75 µg/mL): 0.839

Cc1ccc(OCCN(C)C(=O)c2cc(Cn3nc(C)cc3C)[nH]n2)cc1
bacterial growth OD600 (polymyxin B 0.75 µg/mL): 0.802

Cn1nc(C(=O)N2CCCC(CCc3ccccc3C(F)(F)F)C2)ccc1=O (stereo unspecified)
bacterial growth OD600 (polymyxin B 0.75 µg/mL): 0.583

CCc1csc(CNC(=O)c2ccc(N3CCC[C@H]3CO)nc2)n1
bacterial growth OD600 (polymyxin B 1 µg/mL): 0.928

CC1CCN(CC2(O)CCCN(CC(C)(C)C)C2=O)CC1 (stereo unspecified)
bacterial growth OD600 (polymyxin B 1 µg/mL): 0.999

CCOc1cc(CN2CCC3(CC2)c2ccccc2[C@@H](NC(=O)CC)[C@@H]3OCC)ccc1OC
bacterial growth OD600 (polymyxin B 0.75 µg/mL): 0.807

COc1ccc(OC)c(S(=O)(=O)NCc2cccnc2N(C)C)c1
bacterial growth OD600 (polymyxin B 1 µg/mL): 0.941

COC(=O)CCCC(=O)N1CCCC(CCc2ccccc2F)C1 (stereo unspecified)
bacterial growth OD600 (polymyxin B 0.75 µg/mL): 0.617

COc1ccc(OC2CCN(C3CCCC3)CC2)c(C(=O)N(C)Cc2ccn[nH]2)c1
bacterial growth OD600 (polymyxin B 1 µg/mL): 1.2

CC(=O)N1CCC(N2CCCC(CCc3ccccc3)C2)CC1 (stereo unspecified)
bacterial growth OD600 (polymyxin B 0.75 µg/mL): 0.888

CC(C)(CNC1CCCN(c2nc3ccccc3s2)C1)CN1CCOCC1 (stereo unspecified)
bacterial growth OD600 (polymyxin B 1 µg/mL): 0.819

CCCc1cc(CN(C)C(=O)CC2(c3ccccc3C)CC(=O)N(Cc3ccncc3)C2=O)n[nH]1 (stereo unspecified)
bacterial growth OD600 (polymyxin B 0.75 µg/mL): 0.82

CSCCC(=O)N1CCc2[nH]nc(-c3ccc(Cl)cc3)c2C1
bacterial growth OD600 (polymyxin B 0.75 µg/mL): 0.006

CN(CCc1ccccc1)C(=O)c1coc(Cn2cnc3ccccc32)n1
bacterial growth OD600 (polymyxin B 1 µg/mL): 0.883
